# Data as given in PubChem BioAssay AID2662 (National Center for Advancing Translational Sciences (NCATS), 2010).
# Protein sequences, listed by entry. Tags and fused reporters are not part of them.
# UniProt Q03164, whole entry, looked up: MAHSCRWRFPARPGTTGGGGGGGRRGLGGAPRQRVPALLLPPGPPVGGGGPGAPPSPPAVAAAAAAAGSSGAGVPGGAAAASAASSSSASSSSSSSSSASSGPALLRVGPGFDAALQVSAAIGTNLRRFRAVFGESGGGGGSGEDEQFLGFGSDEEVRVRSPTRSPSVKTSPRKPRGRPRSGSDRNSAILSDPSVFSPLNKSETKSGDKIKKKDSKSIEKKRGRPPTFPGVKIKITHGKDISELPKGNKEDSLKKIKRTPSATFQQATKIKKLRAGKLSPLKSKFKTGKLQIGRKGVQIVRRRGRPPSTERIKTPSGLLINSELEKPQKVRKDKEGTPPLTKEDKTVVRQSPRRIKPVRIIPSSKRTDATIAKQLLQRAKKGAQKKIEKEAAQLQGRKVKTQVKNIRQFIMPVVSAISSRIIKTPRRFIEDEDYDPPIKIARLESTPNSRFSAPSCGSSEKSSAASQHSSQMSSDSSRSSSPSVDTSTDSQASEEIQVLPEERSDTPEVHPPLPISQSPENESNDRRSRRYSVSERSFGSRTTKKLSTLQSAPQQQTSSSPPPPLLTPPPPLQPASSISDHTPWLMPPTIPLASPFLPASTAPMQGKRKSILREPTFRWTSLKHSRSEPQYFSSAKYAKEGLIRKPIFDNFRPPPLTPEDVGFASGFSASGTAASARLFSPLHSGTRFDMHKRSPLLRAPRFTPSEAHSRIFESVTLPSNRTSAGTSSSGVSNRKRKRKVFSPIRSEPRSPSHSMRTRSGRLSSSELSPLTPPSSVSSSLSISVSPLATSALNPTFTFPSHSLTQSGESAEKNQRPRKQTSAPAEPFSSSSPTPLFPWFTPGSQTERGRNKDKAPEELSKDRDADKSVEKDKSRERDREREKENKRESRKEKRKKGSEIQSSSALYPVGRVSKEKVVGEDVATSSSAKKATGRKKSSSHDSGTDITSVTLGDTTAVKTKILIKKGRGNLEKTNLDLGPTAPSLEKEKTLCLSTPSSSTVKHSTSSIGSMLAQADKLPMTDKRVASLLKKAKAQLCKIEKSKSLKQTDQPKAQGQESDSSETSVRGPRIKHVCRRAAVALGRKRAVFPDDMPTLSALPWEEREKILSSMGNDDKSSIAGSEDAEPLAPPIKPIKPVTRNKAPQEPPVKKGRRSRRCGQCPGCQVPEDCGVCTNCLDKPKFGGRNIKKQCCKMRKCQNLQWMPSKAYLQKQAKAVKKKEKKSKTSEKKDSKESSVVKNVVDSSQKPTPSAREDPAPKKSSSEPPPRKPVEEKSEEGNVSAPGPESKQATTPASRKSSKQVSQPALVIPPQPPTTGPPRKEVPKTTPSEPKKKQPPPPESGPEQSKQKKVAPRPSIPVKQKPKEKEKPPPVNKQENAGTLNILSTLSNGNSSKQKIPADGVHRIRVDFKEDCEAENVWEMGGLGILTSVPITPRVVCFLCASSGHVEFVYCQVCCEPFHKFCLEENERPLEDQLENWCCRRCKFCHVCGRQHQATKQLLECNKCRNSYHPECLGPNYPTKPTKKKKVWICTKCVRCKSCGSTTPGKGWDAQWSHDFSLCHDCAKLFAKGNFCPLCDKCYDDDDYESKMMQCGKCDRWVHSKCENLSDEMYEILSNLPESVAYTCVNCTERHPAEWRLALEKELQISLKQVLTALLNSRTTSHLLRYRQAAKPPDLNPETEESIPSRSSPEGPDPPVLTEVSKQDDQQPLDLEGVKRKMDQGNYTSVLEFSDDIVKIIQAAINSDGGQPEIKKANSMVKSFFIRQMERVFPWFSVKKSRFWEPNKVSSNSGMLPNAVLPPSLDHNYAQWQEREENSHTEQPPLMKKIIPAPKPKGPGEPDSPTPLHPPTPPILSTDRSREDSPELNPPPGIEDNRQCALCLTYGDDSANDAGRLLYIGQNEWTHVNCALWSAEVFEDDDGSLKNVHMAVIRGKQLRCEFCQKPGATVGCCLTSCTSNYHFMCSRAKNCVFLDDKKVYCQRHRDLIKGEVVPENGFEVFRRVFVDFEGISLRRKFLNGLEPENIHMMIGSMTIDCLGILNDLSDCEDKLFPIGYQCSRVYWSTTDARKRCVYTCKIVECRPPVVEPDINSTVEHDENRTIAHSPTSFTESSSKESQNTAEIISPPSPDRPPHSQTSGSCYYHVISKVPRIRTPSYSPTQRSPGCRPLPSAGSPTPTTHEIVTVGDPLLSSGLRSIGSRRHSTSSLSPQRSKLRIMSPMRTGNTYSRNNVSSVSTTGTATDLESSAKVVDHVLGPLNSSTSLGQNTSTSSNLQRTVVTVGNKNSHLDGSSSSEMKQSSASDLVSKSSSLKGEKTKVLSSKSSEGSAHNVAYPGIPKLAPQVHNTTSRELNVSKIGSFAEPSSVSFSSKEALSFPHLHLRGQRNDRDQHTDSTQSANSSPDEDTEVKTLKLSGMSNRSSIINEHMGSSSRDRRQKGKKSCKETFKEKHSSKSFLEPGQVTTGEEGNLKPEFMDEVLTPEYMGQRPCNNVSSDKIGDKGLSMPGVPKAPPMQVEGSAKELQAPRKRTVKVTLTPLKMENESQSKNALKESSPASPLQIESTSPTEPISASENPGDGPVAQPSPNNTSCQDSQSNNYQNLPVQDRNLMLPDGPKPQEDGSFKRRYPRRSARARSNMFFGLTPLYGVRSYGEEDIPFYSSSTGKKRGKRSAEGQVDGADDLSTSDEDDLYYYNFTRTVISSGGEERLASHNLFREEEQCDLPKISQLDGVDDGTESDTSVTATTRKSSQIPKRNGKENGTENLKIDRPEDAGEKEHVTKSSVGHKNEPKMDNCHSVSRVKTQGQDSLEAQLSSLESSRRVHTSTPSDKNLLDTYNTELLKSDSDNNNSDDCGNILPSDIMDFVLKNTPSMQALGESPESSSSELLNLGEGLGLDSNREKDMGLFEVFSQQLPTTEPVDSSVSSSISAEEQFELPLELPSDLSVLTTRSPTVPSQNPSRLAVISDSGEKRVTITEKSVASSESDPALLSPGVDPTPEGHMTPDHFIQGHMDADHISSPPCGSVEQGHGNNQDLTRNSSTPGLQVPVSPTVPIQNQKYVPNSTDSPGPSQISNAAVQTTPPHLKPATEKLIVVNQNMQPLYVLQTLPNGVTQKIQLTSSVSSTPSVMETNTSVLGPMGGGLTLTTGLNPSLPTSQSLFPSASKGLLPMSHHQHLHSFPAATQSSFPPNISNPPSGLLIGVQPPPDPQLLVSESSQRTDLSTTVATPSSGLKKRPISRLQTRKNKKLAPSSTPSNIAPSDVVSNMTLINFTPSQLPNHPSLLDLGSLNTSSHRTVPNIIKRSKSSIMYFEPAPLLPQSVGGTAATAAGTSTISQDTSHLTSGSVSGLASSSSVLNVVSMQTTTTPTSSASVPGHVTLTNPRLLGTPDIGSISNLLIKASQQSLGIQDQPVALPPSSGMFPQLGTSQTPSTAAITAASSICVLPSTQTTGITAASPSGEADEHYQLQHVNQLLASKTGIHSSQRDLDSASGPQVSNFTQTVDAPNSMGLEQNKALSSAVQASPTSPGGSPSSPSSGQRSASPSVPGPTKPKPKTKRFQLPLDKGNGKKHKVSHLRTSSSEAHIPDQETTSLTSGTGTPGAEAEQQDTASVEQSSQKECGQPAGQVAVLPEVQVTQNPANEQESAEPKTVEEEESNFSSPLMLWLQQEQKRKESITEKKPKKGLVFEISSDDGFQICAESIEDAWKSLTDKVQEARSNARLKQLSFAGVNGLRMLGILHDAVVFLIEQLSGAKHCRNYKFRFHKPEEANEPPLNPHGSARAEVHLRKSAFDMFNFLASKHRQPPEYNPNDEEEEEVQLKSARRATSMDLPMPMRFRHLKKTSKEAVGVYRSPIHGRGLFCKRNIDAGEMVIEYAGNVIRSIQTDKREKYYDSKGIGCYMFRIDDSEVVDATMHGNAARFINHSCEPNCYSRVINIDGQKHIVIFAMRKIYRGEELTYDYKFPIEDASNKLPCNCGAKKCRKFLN
# Out of some 290,000 compounds screened, about 110 (0.038%) were called active. This list was built around the results that the source calls inconclusive (neither active nor inactive); the mix of calls is not that of the screen. Calls follow the shape of the dose curve; as a rule, active = well fitted inhibition curve with a large enough effect in the polarisation, with a control signal flat (not every such curve was filed as active); inconclusive = small, poorly fitted or top-dose-only effect, or effect the other way, or a change in a side signal; inactive = no such curve, though single readings can be large or run the other way; the % refers to the polarisation. A potency beside an inconclusive call is a rough fit, not a confirmed value. A note “side channel” means that the fit belongs to a control or component signal, not to the main read-out.
# Target: Histone-lysine N-methyltransferase 2A (Homo sapiens) (UniProt Q03164)
# Experiment: qHTS Fluorescence Polarization Assay for Inhibitors of MLL CXXC domain - DNA interaction
# Details: MLL-CXXC / FITC-HOXA9 DNA fluorescence polarization; activity change, negative = inhibition: at 115 µM (top of the series)
# In short: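 Fluorescence polarization: 7 uM MLL-CXXC (stock) preincubated 5 min with compounds, then 50 nM fluorescein-HOX-A9 DNA (stock) added; 30 min ambient. Buffer 50 mM Tris-HCl pH 7.5, 50 mM NaCl, 1 mM DTT, 0.05% BSA.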
# Potency is read from the fitted curve at half-maximal effect.
SMILES,Potency,"activity change, negative = inhibition"
Cc1ccc(CNC(=O)C2CCC(=O)N2Cc2ccc(C)cc2)cc1 (stereo unspecified),"inconclusive: 15.8 µM [fluorescent, side channel, single point]",–
COC(=O)c1cc(C)nc2c1C(=O)C(=O)C=C2N1CCOCC1,"inconclusive: 22.4 µM [inhibitor, partial curve]",–
FC(F)(F)c1nc(-c2cccs2)ncc1-c1nnnn1-c1ccc(Cl)cc1,–,inactive: -14.5%
Nc1cc2sc(-c3ccc(C(=O)O)cc3)nc2cc1Cl,–,inactive: 4.75%
O=C(NC(=S)NCCN1CCOCC1)c1ccccc1Cl,–,inactive: 2.18%
COc1ccc(-c2cc(C(F)(F)F)nc(S(=O)(=O)CCCC(=O)Nc3cc(C)on3)n2)cc1OC,"inconclusive: 20 µM [quencher, side channel, partial curve]",–
O=C(O)c1cc(NC(=O)c2cccc(N3C(=O)c4ccccc4C3=O)c2)cc(C(=O)O)c1,–,inactive: 3.84%
Cc1ccc(S(=O)(=O)N=S(CC2CC2(Cl)Cl)CC2CC2(Cl)Cl)cc1 (stereo unspecified),"inconclusive: 6.31 µM [quencher, side channel, full curve, poor fit]",–
Cc1cc2ccccc2n1CCNC(=O)Cc1ccccc1,–,inactive: 2.51%
CCOc1ccccc1N=NC1C(=O)N(C(N)=S)N=C1C (stereo unspecified),"inconclusive: 20 µM [fluorescent, side channel, partial curve]",–
NC(=O)c1cc2ccccc2o/c1=N/NC(=O)c1cccc(Cl)c1,"inconclusive: 39.8 µM [inhibitor, single point]",–
COc1cc2nc(=S)n3[nH]c(COc4ccccc4C)nc3c2cc1OC,–,inactive: 2.95%
Cc1cc[n+](-c2[nH]c(=O)sc2/C=N/N=C(\[O-])c2ccccc2)cc1C,"inconclusive: 31.6 µM [fluorescent, side channel, partial curve]",–
CCOc1ncccc1C(=O)OCc1c(F)cccc1Cl,"inconclusive: 5.62 µM [fluorescent, side channel, full curve]",–
O=C(O)COc1ccccc1C(Nc1cccnc1)c1cc(Cl)c2cccnc2c1O (stereo unspecified),"inconclusive: 39.8 µM [inhibitor, partial curve]",–
Oc1sc(C=Nc2ccc(F)cc2)c2ccccc12,"inconclusive: 31.6 µM [fluorescent, partial curve]",–
Oc1ccccc1-c1nc(NC2CCCC2)c2ccccc2n1,–,inactive: 0.0205%
CCCN(Cc1cc2cccc(C)c2[nH]c1=O)S(C)(=O)=O,"inconclusive: 50.1 µM [fluorescent, side channel, single point]",–
O=[N+]([O-])c1ccc(/C=C/C2=NN(c3ccccc3)C(c3ccco3)C2)o1 (stereo unspecified),"inconclusive: 5.62 µM [fluorescent, side channel, partial curve]",–
COC(=O)C1=C(C)OC(N)=C(C#N)C1c1cc(C)sc1C (stereo unspecified),–,inactive: -0.421%
Cc1ccc(N2C(=O)NC(NS(=O)(=O)c3ccc(C)cc3)(C(F)(F)F)C2=O)cc1 (stereo unspecified),"inconclusive: 39.8 µM [fluorescent, side channel, single point]",–

SMILES,Potency,"activity change, negative = inhibition"
COc1ccc(NC(=O)c2cccc(-c3ccc(O)cc3)c2)cn1,"inconclusive: 39.8 µM [fluorescent, side channel, single point]",–
COC(=O)c1cc(C(=O)c2cc(F)ccc2O)cn2c(=O)c3c(C)c(C)sc3nc12,"inconclusive: 10 µM [fluorescent, side channel, partial curve, poor fit]",–
COc1ccc(NS(=O)(=O)c2cccc(Cl)c2)cc1S(=O)(=O)N1CCCCC1,"inconclusive: 0.891 µM [fluorescent, side channel, full curve]",–
COc1cccc(/C(O)=C/c2nc3ccc(C(=O)NCCc4cccc(C)c4)cc3[nH]c2=O)c1,"inconclusive: 12.6 µM [fluorescent, side channel, partial curve]",–
C/C(O)=C(\C#N)P(=O)(c1ccccc1)c1ccccc1,"inconclusive: 31.6 µM [quencher, side channel, single point]",–
CC1CCCC(C)N1/N=C/c1ccccc1Br (stereo unspecified),"inconclusive: 89.1 µM [inhibitor, single point]",–
COc1cccc(/C=N/Nc2nccnc2Cl)c1O,–,inactive: -3.59%
CN1CCC/C1=C/C=C1\SC(=S)NC1=O,"inconclusive: 15.8 µM [fluorescent, side channel, partial curve]",–
CN(C)CCCNc1c2ccccc2nc2ccccc12,"inconclusive: 89.1 µM [quencher, side channel, single point]",–
Cc1ccc(CNC(=O)c2ccc(N3CCC4(CC3)CC(c3ccccc3)=NO4)c(N)c2)cc1,–,inactive: 22.1%
CCN(CC)CCN(C(=O)c1ccc2c(c1)CCCC2)c1nc2c(C)cccc2s1,"inconclusive: 63.1 µM [quencher, side channel, single point]",–
CC1(C)NC(=O)N(CC(O)CN2C(=O)NC(C)(C)C2=O)C1=O,–,inactive: 1.37%
Cn1c(CSCc2ccccc2Cl)n[nH]c1=S,"inconclusive: 39.8 µM [fluorescent, side channel, partial curve]",–
Cc1cccc(C)c1-n1c(C)cc(/C=N\Nc2ccc([N+](=O)[O-])cn2)c1C,"inconclusive: 44.7 µM [quencher, side channel, partial curve]",–
COc1ccc(C(=O)NC(=S)Nc2ccc(Cl)cn2)cc1OC,"inconclusive: 1.41 µM [fluorescent, side channel, full curve, poor fit]",–
C=C1CCC[C@]2(C)C[C@H]3OC(=O)C(CNC(CC)CO)[C@H]3CC12 (stereo partly specified),"inconclusive: 14.1 µM [inhibitor, single point]",–
COC(=O)C1CCN(Cc2cc(=O)oc3cc(C)c(Cl)cc23)CC1,"inconclusive: 70.8 µM [fluorescent, side channel, single point]",–
CCOc1cc(C(c2c(C)[nH][nH]c2=O)c2c(C)[nH][nH]c2=O)ccc1OS(=O)(=O)c1ccccc1,"inconclusive: 39.8 µM [fluorescent, side channel, partial curve]",–
COC(=O)c1ccc2nc(NC(=O)CSCC(=O)OCC(=O)c3ccccc3)sc2c1,"inconclusive: 35.5 µM [fluorescent, side channel, single point]",–
COC(=O)COc1c(/C=C\c2nc(O)c([N+](=O)[O-])c(=O)[nH]2)cccc1OC,"inconclusive: 3.98 µM [inhibitor, full curve]",–
CN(C)CCCCOc1cccc(Br)c1,"inconclusive: 28.2 µM [quencher, side channel, single point]",–

# Nothing new here: entries from further up.
SMILES,Potency,"activity change, negative = inhibition"
CCOc1ncccc1C(=O)OCc1c(F)cccc1Cl,"inconclusive: 5.62 µM [fluorescent, side channel, full curve]",–
O=C(O)COc1ccccc1C(Nc1cccnc1)c1cc(Cl)c2cccnc2c1O (stereo unspecified),"inconclusive: 39.8 µM [inhibitor, partial curve]",–
Oc1sc(C=Nc2ccc(F)cc2)c2ccccc12,"inconclusive: 31.6 µM [fluorescent, partial curve]",–
Oc1ccccc1-c1nc(NC2CCCC2)c2ccccc2n1,–,inactive: 0.0205%
CCCN(Cc1cc2cccc(C)c2[nH]c1=O)S(C)(=O)=O,"inconclusive: 50.1 µM [fluorescent, side channel, single point]",–
O=[N+]([O-])c1ccc(/C=C/C2=NN(c3ccccc3)C(c3ccco3)C2)o1 (stereo unspecified),"inconclusive: 5.62 µM [fluorescent, side channel, partial curve]",–
COC(=O)C1=C(C)OC(N)=C(C#N)C1c1cc(C)sc1C (stereo unspecified),–,inactive: -0.421%
Cc1ccc(N2C(=O)NC(NS(=O)(=O)c3ccc(C)cc3)(C(F)(F)F)C2=O)cc1 (stereo unspecified),"inconclusive: 39.8 µM [fluorescent, side channel, single point]",–
COc1ccc(NC(=O)c2cccc(-c3ccc(O)cc3)c2)cn1,"inconclusive: 39.8 µM [fluorescent, side channel, single point]",–
COC(=O)c1cc(C(=O)c2cc(F)ccc2O)cn2c(=O)c3c(C)c(C)sc3nc12,"inconclusive: 10 µM [fluorescent, side channel, partial curve, poor fit]",–
COc1ccc(NS(=O)(=O)c2cccc(Cl)c2)cc1S(=O)(=O)N1CCCCC1,"inconclusive: 0.891 µM [fluorescent, side channel, full curve]",–
COc1cccc(/C(O)=C/c2nc3ccc(C(=O)NCCc4cccc(C)c4)cc3[nH]c2=O)c1,"inconclusive: 12.6 µM [fluorescent, side channel, partial curve]",–
C/C(O)=C(\C#N)P(=O)(c1ccccc1)c1ccccc1,"inconclusive: 31.6 µM [quencher, side channel, single point]",–
CC1CCCC(C)N1/N=C/c1ccccc1Br (stereo unspecified),"inconclusive: 89.1 µM [inhibitor, single point]",–
COc1cccc(/C=N/Nc2nccnc2Cl)c1O,–,inactive: -3.59%

# Remaining list, next part:

SMILES,Potency,"activity change, negative = inhibition"
Cc1csc(NC(=O)C2CCCN(S(=O)(=O)c3ccc(Br)s3)C2)n1 (stereo unspecified),"inconclusive: 8.91 µM [quencher, side channel, full curve, poor fit]",–
Clc1ccccc1/C=N/NC1=Nc2cccc3cccc1c23,"inconclusive: 31.6 µM [fluorescent, side channel, single point]",–
NCc1cc2c3c(c1)CCCN3CCC2,"inconclusive: 39.8 µM [quencher, side channel, single point]",–
CCC(C(=O)O)C1CCC(C)C(C(C)C(O)C(C)C(=O)C(CC)C2OC3(C=CC(O)[C@@]4(CC[C@](C)(C5CC[C@@](O)(CC)C(C)O5)O4)O3)C(C)CC2C)O1 (stereo partly specified),–,inactive: -2.7%
CCc1cccc2c(C(=O)COC(=O)c3ccc(O)cc3)c[nH]c12,"inconclusive: 22.4 µM [fluorescent, side channel, partial curve]",–
O=[N+]([O-])c1cccc(/C=N/n2cnnc2)c1O,"inconclusive: 1.12 µM [fluorescent, side channel, full curve]",–
CC(C)c1ccc(/C=N/n2nnnc2Nc2ccccc2)cc1,–,inactive: 16.5%
Cn1cnnc1SCC(=O)c1ccc(OC(F)F)cc1,"inconclusive: 2.82 µM [quencher, side channel, full curve]",–
Cc1cc(-c2cc(C(=O)NCc3ccccc3)on2)nc(S(C)(=O)=O)n1,"inconclusive: 14.1 µM [quencher, side channel, full curve, poor fit]",–
Cc1cc(C)cc(N(C(=O)c2snc(C(N)=O)c2N)C(C(=O)NCC2CCCO2)c2cccs2)c1 (stereo unspecified),"inconclusive: 20 µM [fluorescent, side channel, partial curve, poor fit]",–
NC1=NC(=O)/C(=C/c2cc(Br)c(O)c(Br)c2)S1,"inconclusive: 15.8 µM [fluorescent, side channel, single point]",–
CN1/C(=C\C=C2/SC(=S)N(CC(=O)O)C2=O)C(C)(C)c2ccccc21,"inconclusive: 3.55 µM [fluorescent, side channel, full curve]",–
Oc1ccc(N=Cc2c(O)ccc3ccccc23)cc1,"inconclusive: 44.7 µM [fluorescent, side channel, partial curve]",–
CNc1c(N)c(=O)oc2ccccc12,–,inactive: 3.03%
O=C(CSc1nc2scc(-c3ccccc3)c2c(=O)[nH]1)Nc1ccccc1,"inconclusive: 7.94 µM [fluorescent, side channel, partial curve]",–
Cc1cc(SCc2ccccc2)nc(=O)[nH]1,"inconclusive: 8.91 µM [fluorescent, side channel, full curve, poor fit]",–
COCCNC(=O)c1c(N)n(CCC2=CCCCC2)c2nc3ccccc3nc12,–,inactive: 52.8%
CCN1C(=NCC(C)C)N[C@@H](CCc2ccccc2)[C@H](C(=O)NCC(C)C)[C@H]1C,inactive,–
Cc1[nH]c2ccccc2c1/C=N/NC(=O)c1cccs1,"inconclusive: 17.8 µM [fluorescent, side channel, partial curve]",–
